Source: paper PMC11879086, “Identification and characterization of a human MORC2 DNA binding region that is required for gene silencing” (Nucleic Acids Research, 2024)

What was measured:
[1] = target: T1, MORC2 dephosphorylated (wild-type) (Homo sapiens) (UniProt Q9Y6X9); experiment: fluorescence anisotropy; settings: FA/EMSA: 50 mM NaCl, 3 mM MgCl2, 20 mM Na-HEPES pH 7.4, 1 mM TCEP, 10% glycerol, 0.025 mM ZnCl2, 50 ug/ml BSA, room temperature, recombinant protein, residues 1-1032, protein details: tag removed by TEV, label: 5'-6-FAM; for binding result: value not in material
T1 sequence (looked up): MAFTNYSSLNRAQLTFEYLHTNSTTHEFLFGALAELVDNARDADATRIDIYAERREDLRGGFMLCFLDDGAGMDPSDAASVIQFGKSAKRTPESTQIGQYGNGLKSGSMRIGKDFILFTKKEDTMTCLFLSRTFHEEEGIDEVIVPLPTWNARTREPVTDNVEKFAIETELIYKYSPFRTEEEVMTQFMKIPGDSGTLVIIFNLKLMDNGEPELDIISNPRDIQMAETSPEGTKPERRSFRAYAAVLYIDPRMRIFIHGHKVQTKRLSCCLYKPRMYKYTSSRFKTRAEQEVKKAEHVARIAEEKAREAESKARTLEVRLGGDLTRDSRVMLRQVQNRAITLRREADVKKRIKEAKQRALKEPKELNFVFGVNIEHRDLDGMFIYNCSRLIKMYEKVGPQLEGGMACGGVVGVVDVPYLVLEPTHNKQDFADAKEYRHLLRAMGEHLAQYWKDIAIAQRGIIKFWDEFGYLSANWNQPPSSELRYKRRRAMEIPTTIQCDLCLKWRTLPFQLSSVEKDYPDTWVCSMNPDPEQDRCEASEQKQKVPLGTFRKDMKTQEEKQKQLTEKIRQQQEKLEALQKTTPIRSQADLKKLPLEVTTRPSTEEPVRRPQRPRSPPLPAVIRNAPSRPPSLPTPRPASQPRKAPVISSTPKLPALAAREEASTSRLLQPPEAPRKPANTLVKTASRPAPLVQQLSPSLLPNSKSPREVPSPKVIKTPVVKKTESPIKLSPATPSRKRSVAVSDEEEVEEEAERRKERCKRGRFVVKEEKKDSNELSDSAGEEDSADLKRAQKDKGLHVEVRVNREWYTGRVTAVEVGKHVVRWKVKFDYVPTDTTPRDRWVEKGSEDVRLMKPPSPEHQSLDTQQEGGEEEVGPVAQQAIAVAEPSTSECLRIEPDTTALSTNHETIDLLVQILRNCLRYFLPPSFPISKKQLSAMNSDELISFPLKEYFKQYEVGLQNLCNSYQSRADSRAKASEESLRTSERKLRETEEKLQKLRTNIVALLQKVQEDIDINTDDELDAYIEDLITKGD

[2] = target: MORC2 phosphorylated (wild-type) (Homo sapiens) (UniProt Q9Y6X9); experiment: fluorescence anisotropy; settings: apo; FA/EMSA: 50 mM NaCl, 3 mM MgCl2, 20 mM Na-HEPES pH 7.4, 1 mM TCEP, 10% glycerol, 0.025 mM ZnCl2, 50 ug/ml BSA, room temperature; recombinant protein; residues 1-1032; protein details: tag removed by TEV; label: 5'-6-FAM

ATAGGGTCCATCAGAATTCGGATGAACTCGGTGTG (double strand) [Random 35mer dsDNA]
Kd ([1]; 1 mM ADP): 36 nM | Kd ([1]; 1 mM AMP-PNP): 30 nM | Kd ([1]; 1 mM ATP): 86 nM | binding result ([1]; 1 mM ATPgS, largest reduction): binds more weakly | Kd [2]: 285 nM

TGTGTGCGCACCGTGCGCGAGCCGAAGCAGGGCGA (double strand) [High GC 35mer dsDNA]
binding result ([1]; apo): binds

The exact form of at least one protein or probe is not confirmed. For part of these data: Weaker means in comparison with the reference protein, sequence or condition of that experiment. For part of these data: Tags and fusion partners may be left off the protein sequences shown. For part of these data: At least one verdict rests on a figure or table, not on a statement of the authors.
